{"sequences": {"note": "The chains behind the UniProt entries cited, without tags or fusion partners. Residues count along the entry.", "UniProt P27038, residues 20-135": "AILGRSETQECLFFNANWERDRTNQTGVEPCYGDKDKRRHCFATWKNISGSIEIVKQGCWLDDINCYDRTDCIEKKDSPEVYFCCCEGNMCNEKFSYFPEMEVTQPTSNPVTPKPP"}, "source": "paper PMC7467722", "molecules": {"B1": {"name": "ActRIIB-AP (Activin receptor IIB ectodomain fused at its carboxy terminus with alkaline phosphatase) (domain or fragment, UniProt P27040 19-137)", "chain": "SGRGEAETRECIYYNANWELERTNQSGLERCEGEQDKRLHCYASWRNSSGTIELVKKGCWLDDFNCYDRQECVATEENPQVYFCCCEGNFCNERFTHLPEPGGPEVTYEPPPTAPTLLT"}, "B2": {"name": "CDON-Fc (secreted CDON ectodomain fused at its carboxy terminus with the IgG Fc region) (Fc fusion, UniProt O35158 25-963)", "chain": "DLATYFISEPLSAVQKLGRPVVLHCSAKPVTARISWLHNGKRLDRNTEQIKIHRGTLTILSLNPSLSGCYQCVANNSVGAVVSGPATVSADALADFDSSTMHVITAEKKNTGFIGCRVPESNPKAEVRYKIRGKWLMYSTGNYIILPSGNLQILNVSSKDKGSYKCAAYNPVTSELKVEPAGRKLLVSRPSSDGFHILHPALSQALAVLPHSPVTLECVVSGVPASQVYWLKDGQDCLSGSNWRRLYSHLATASIDPADSGNYSCVVGNNSSGDVKHVTYTVNVLEHASISKGLHDQKVSLGATVRFTCEVHGNPAPNRTWFHNAQPIRPSSRHLTEGSVLKITGVIMEDSGLYQCMADNGIGFMQSTGRLQIEQDSGQRPVIVTAPANVEVTDGDFVTLSCNATGEPVPVIHWYGRHGLITSHPSQVLRSKSRKSHLFRPGDLDPEPVYLIMSQAGSSSLSIQAVTREHAGKYTCEAVNKHGSTQSEAFLTVVPFETNTKAEPVTPSEASQNDERDPRDGSESGLLNLFPVKVHSGGVELPAEKNASVPDAPNILSPPQTHMPDTYTLVWRTGRDGGMPINAYFVKYRKLDDGSGAVGSWHTVRVPGSESELHLTELEPSSLYEVLMVARSAVGEGQPAMLTFRTSKEKMASSKNTQASFPPVGIPKRPVTSEASNSNFGVVLTDSSRHSGVPEAPDRPTISMASETSVYVTWIPRANGGSPITAFKVEYKRMKSSDWLVAAEDIPPSKLSVEVRSLEPGSIYKFRVIVINHYGESFRSSASRPYQVAGFPNRFSNRPITGPHIAYTEAVSDTQIMLKWTYIPSSNNNTPIQGFYIYYRPTDSDNDSDYKRDVVEGSKQWHTIGHLQPETSYDIKMQCFNEGGESEFSNVMICETKVKRVPGASEYPMKELSTPPSSSGNGGNVGPATSPARSSDMLY"}, "B3": {"name": "ALK4-AP (ALK4 ectodomain fused at its carboxy terminus with alkaline phosphatase) (domain or fragment, UniProt Q61271 24-126)", "chain": "SGPRGIQALLCACTSCLQTNYTCETDGACMVSIFNLDGVEHHVRTCIPKVELVPAGKPFYCLSSEDLRNTHCCYIDFCNKIDLRVPSGHLKEPAHPSMWGPVE"}}, "key": {"[1]": {"target": "T1, CDON-Fc (secreted CDON ectodomain fused at its carboxy terminus with the IgG Fc region) (UniProt O35158)", "T1 sequence": "B2 chain", "test": "pull-down; CDON-Fc co-expressed with AP-tagged protein in HEK293T; equivalent levels of Fc pulled down from conditioned medium with protein G agarose beads, 2 hr at 4°C, washed five times with HNTG buffer; associated AP enzyme activity quantified"}, "[2]": {"target": "T2, ALK4-AP (ALK4 ectodomain fused at its carboxy terminus with alkaline phosphatase) (UniProt Q61271)", "T2 sequence": "B3 chain", "test": "pull-down; AP-tagged protein co-expressed with CDON-Fc in HEK293T; equivalent amounts of AP fusion proteins in conditioned medium pulled down with anti-AP agarose beads overnight at 4°C, washed five times with HNTG buffer (20 mM HEPES pH 7.5, 150 mM NaCl, 0.1% Triton X-100, 10% glycerol); captured CDON-Fc blotted with anti-human Fc"}, "[3]": {"target": "T3, ActRIIB-AP (Activin receptor IIB ectodomain fused at its carboxy terminus with alkaline phosphatase) (UniProt P27040)", "T3 sequence": "B1 chain", "test": "pull-down; AP-tagged protein co-expressed with CDON-Fc in HEK293T; equivalent amounts of AP fusion proteins in conditioned medium pulled down with anti-AP agarose beads overnight at 4°C, washed five times with HNTG buffer (20 mM HEPES pH 7.5, 150 mM NaCl, 0.1% Triton X-100, 10% glycerol); captured CDON-Fc blotted with anti-human Fc"}, "[4]": {"target": "ActRIIA-AP (Activin receptor IIA ectodomain fused at its carboxy terminus with alkaline phosphatase) (UniProt P27038)", "test": "pull-down; AP-tagged protein co-expressed with CDON-Fc in HEK293T; equivalent amounts of AP fusion proteins in conditioned medium pulled down with anti-AP agarose beads overnight at 4°C, washed five times with HNTG buffer (20 mM HEPES pH 7.5, 150 mM NaCl, 0.1% Triton X-100, 10% glycerol); captured CDON-Fc blotted with anti-human Fc"}}, "note": "These are yes or no findings as the source states them, for the method shown. Binding seen in cells or lysates may run through a third protein. Some results given as binding are weak or reduced against the parent protein; the word gives no strength. Tags and fused reporters may be left off the sequences shown."}
{"molecule": "ActRIIA-AP (Activin receptor IIA ectodomain fused at its carboxy terminus with alkaline phosphatase) (from UniProt P27038 20-135) (domain or fragment)", "values": [{"measurement": "binding", "setting": "[1]", "value": "binds weakly"}]}
{"molecule": "B1", "values": [{"measurement": "binding", "setting": "[1]", "value": "binds weakly"}]}
{"molecule": "B2", "values": [{"measurement": "binding", "setting": "[2]", "value": "binds weakly"}, {"measurement": "binding", "setting": "[3]", "value": "binds weakly"}, {"measurement": "binding", "setting": "[4]", "value": "binds weakly"}]}
{"molecule": "B3", "values": [{"measurement": "binding", "setting": "[1]", "value": "binds weakly"}]}
